# Measured values taken from PubChem BioAssay AID2685 (National Center for Advancing Translational Sciences (NCATS), 2010).
# The other results are listed elsewhere or left out. These are further read-outs of the screen, such as a control signal, another cell line or another target. No call is given for them. The list favours compounds with an active or inconclusive main result. Words in brackets tell the shape of the fitted curve; partial curves, single points and poor fits give uncertain potencies.
# Assay: qHTS Assay for Lipid Storage Modulators in Drosophila S3 Cells;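 on cell number change: cells counted by Cell Tracker Red CMTPX staining in the red channel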
# Details: BODIPY lipid droplet fluorescence, 18-24 h; for cell number change: measured here: cell count max response, cells fed with added oleic acid
# Procedure, shortened: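 Drosophila S3 cells got compounds at several concentrations plus oleic acid (400 uM solution). Laser-scanning cytometry with 488 nm excitation read lipid droplets at 500-530 nm and cells at 575-640 nm. Percent activity was relative to 20 uM Triacsin C.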
# [1] = measured here: lipid fluorescence (Fed channel) AC50, cells fed with added oleic acid
# [2] = measured here: cell number channel AC50, cells fed with added oleic acid
SMILES,cell number change,AC50 [1],AC50 [2]
COCCNC(=O)Cc1cn(C)c2ccccc12,-9.99%,"0.411 µM [falling, single point]",
Fc1ccccc1Cc1nnc2n1N=C(c1ccc(Cl)cc1)CS2,150%,,"5.8 µM [rising, full curve]"
c1ccc2c(c1)oc1c(N3CCOCC3)ncnc12,-2.56%,"29.1 µM [rising, single point]",
CCOc1cccc2sc(N(CCCN(C)C)C(=O)Cc3ccccc3)nc12,22%,"29.1 µM [rising, single point]","0.00517 µM [falling, full curve, poor fit]"
CCc1ccc(-n2c(CSc3nnnn3-c3ccccc3)nc3ccccc3c2=O)cc1,70.2%,"0.731 µM [rising, partial curve, poor fit]","1.46 µM [rising, full curve]"
COc1cc(CNC(=O)c2ccc3oc(C(C)C)nc3c2)cc(OC)c1,-58.8%,"20.6 µM [falling, single point]","16.4 µM [falling, single point]"
COc1ccc(N(C)S(=O)(=O)c2ccc(Cl)c(C(=O)NCC(C)(C)N3CCOCC3)c2)cc1,22.5%,"8.2 µM [falling, partial curve]",
O=C(CCc1nnc2ccc(NCc3ccco3)nn12)Nc1ccc(F)cc1F,-23.3%,,
CC(Sc1nncn1C)C(=O)Nc1ccc2ccccc2c1 (configuration not stated),,"8.2 µM [falling, partial curve]",
NC(=O)/C(=C\c1ccncc1)c1cccc2ccccc12,6.04%,"0.0259 µM [rising, full curve, poor fit]",
COCCNC(=O)/C(C#N)=C/c1cc(Br)c(O)c(OC)c1,35.4%,,
Cc1ccc(C(=O)COC(=O)C2CC(=O)N(c3nc(-c4ccccc4)cs3)C2)cc1C (configuration not stated),21.9%,,
COc1ccc(N(CC(=O)Nc2cc(Cl)ccc2OC)S(=O)(=O)c2c(C)[nH]c(=O)[nH]c2=O)cc1,-30.5%,,"0.58 µM [falling, partial curve, poor fit]"
CC1=NN(c2ccccc2)C(=O)/C1=C\C=C1\N(C)c2ccccc2C1(C)C,-69.3%,"2.91 µM [falling, full curve]","5.8 µM [falling, full curve]"
CCNC(=O)/C(C#N)=C/c1c(N2CCCCCC2)nc2ccccn2c1=O,11.3%,,
O=C(NC(=O)c1cc(OCC(F)(F)F)ccc1OCC(F)(F)F)Nc1ccccc1,12.3%,"4.11 µM [rising, partial curve, poor fit]",
COc1ccc(CCNC(=O)Cc2ccccc2)cc1OC,-1.47%,"2.91 µM [falling, single point]",
COC(=O)c1cc2oc3ccccc3c2n1Cc1ccccn1,19.3%,"7.31 µM [rising, single point]","3.26 µM [rising, full curve, poor fit]"
Cc1cccc(C)c1NC(=O)CN(C)C(=O)CC1Sc2ccccc2NC1=O (configuration not stated),39.1%,"2.59 µM [rising, partial curve]","2.59 µM [rising, partial curve, poor fit]"

# Record cards, as listed above. Values in the order: cell number change | AC50 [1] | AC50 [2]
# CCc1ccc(-n2c(CSc3nnnn3-c3ccccc3)nc3ccccc3c2=O)cc1 in the list: 70.2% | 0.731 µM [rising, partial curve, poor fit] | 1.46 µM [rising, full curve]
# Cc1cccc(C)c1NC(=O)CN(C)C(=O)CC1Sc2ccccc2NC1=O (configuration not stated) in the list: 39.1% | 2.59 µM [rising, partial curve] | 2.59 µM [rising, partial curve, poor fit]

# The results go on:

SMILES,cell number change,AC50 [1],AC50 [2]
Cc1ccc(-c2nn3c(C)nnc3c3ccccc23)cc1S(=O)(=O)NC(C)(C)CO,-29.6%,"18.4 µM [falling, single point]",
COC(=O)c1sccc1NC(=O)C1CC2CCC1C2 (configuration not stated),-27.4%,,
Cc1c(C(=O)Nc2ccc(C(=O)Nc3ccccc3)cc2)cccc1[N+](=O)[O-],51.7%,,"14.6 µM [rising, partial curve]"
CO/N=C/c1ccc(Sc2ccccc2N)c([N+](=O)[O-])c1,-18%,"7.31 µM [rising, partial curve]",
O=C(NC(=Nc1nc2ccccc2o1)NC(=O)c1ccccc1)c1ccccc1,10.3%,"0.259 µM [rising, full curve, poor fit]",
CNC(=O)c1c(NC(=O)CCS(=O)(=O)c2ccccc2)sc(C)c1C,30.2%,"3.66 µM [rising, full curve]","6.51 µM [rising, partial curve, poor fit]"
COc1ccccc1CN1CC(C(=O)NCCCc2ccc(F)cc2)CCC1=O (configuration not stated),-15.2%,"18.4 µM [falling, single point]",
Cc1cccc(C)c1OCC(=O)N/N=C/c1cc2c(cc1[N+](=O)[O-])OCO2,6.42%,"1.16 µM [rising, full curve, poor fit]",
CNC(=O)OCc1cccc(COC(=O)NC)n1,-1.79%,"6.51 µM [falling, single point]",
COc1cc(/C=N/O)c(Br)cc1OCC(=O)Nc1ccccc1C,8.31%,,
O=C(Nc1ccccc1N1CCCC1)c1ccco1,8.74%,"25.9 µM [rising, single point]",
CC(OC(=O)c1ccc(Cl)nc1)C(=O)N1CCc2ccccc21 (configuration not stated),-33.2%,"1.46 µM [falling, full curve, poor fit]","0.146 µM [falling, full curve, poor fit]"
O=C(COc1cccc2ccccc12)NNC(=O)[C@@H]1CCCC[C@@H]1C(=O)O,36.7%,"6.51 µM [rising, single point]","29.1 µM [rising, single point]"
CC1CCCN(C(=O)C2CCN(S(=O)(=O)c3cccc4nsnc34)CC2)C1 (configuration not stated),22.6%,"3.26 µM [falling, single point]",
CCOC(=O)CNC(=O)CNC(=O)Cn1ccc2ccccc2c1=O,-79.9%,"1.16 µM [falling, full curve, poor fit]","18.4 µM [falling, partial curve, poor fit]"
Cc1ccc(C(C(=O)NC2CCCCC2)N(Cc2ccco2)C(=O)Cn2cnc3ccccc32)cc1 (configuration not stated),-25.7%,"29.1 µM [falling, single point]",
COC(=O)/C=C1\SC(N)=NC1=O,-4.63%,,"6.51 µM [falling, single point]"
C=CCOc1ccc(/C=C/C(=O)OCC(=O)NCCc2ccccc2)cc1,-31.6%,,"29.1 µM [falling, single point]"
